Results are given in words; binding and its absence hold for the method and conditions named. A result given as binding can be weak or reduced; the word gives no strength. Where a sequence is shown, tags or fusion partners need not be part of it.
How the values were obtained:
Experiment in all cases: two-hybrid; Cya-based bacterial two-hybrid (BACTH) in E. coli BTH101, LB at 30 °C, 0.5 mM IPTG for 1 h, β-galactosidase in liquid culture; threefold above vector alone scored positive; binder written as the T18 fusion, target as the T25 fusion
[1] = biological target: T1, PspG fused to a Cya fragment at its C-terminus (PspG–T25 or PspG–T18) (E. coli) (UniProt P32696)
T1 sequence: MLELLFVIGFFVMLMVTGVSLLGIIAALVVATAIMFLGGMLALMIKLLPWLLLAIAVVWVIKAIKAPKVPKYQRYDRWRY

By UniProt entry, the sequences of proteins in these tests, tags left out. Where a name states a change or a piece, a line headed by the entry shows the natural chain unless it says otherwise.
UniProt P0AEC3: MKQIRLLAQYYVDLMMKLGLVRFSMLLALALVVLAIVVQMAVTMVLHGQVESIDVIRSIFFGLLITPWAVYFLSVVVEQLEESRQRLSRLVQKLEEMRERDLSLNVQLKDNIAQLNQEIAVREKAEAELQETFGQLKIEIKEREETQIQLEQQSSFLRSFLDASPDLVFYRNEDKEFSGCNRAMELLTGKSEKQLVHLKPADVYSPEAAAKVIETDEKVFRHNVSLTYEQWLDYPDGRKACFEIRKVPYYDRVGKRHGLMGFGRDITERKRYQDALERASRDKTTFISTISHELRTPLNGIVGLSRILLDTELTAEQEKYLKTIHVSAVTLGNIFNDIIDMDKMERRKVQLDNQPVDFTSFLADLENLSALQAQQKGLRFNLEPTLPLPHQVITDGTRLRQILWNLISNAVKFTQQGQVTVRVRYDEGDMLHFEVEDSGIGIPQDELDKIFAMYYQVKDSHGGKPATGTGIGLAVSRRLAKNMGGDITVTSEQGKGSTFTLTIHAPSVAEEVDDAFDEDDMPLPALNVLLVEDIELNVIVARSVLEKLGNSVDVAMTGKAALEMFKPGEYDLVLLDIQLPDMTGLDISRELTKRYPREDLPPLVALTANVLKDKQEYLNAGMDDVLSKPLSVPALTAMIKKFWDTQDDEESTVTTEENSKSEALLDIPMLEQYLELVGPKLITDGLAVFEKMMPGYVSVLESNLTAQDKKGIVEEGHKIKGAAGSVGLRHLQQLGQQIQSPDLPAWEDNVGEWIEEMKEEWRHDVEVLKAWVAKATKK

[2] = biological target: T2, PspB fused to a Cya fragment at its C-terminus (PspB–T25 or PspB–T18) (E. coli) (UniProt P0AFM9)
T2 sequence: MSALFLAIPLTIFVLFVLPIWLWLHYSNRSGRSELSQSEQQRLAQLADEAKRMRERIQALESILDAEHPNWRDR

[3] = biological target: T3, PspC_(40–119) fused to a Cya fragment at its N-terminus (E. coli) (UniProt P0AFN2)
T3 sequence: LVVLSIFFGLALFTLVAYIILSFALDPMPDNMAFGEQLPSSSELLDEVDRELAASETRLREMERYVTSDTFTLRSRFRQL

[4] = biological target: T4, PspC_(1–68) fused to a Cya fragment at its N-terminus (E. coli) (UniProt P0AFN2)
T4 sequence: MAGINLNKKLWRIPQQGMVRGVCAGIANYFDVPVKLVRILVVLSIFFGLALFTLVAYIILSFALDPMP

[5] = biological target: T5, PspC fused to a Cya fragment (T25–PspC or T18–PspC) (E. coli) (UniProt P0AFN2)
T5 sequence: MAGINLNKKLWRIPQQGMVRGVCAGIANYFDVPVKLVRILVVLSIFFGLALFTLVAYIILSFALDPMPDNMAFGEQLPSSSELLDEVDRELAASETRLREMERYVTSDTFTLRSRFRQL

Row | binding [1] | binding [2] | binding [3] | binding [4] | binding [5] | Substance
1 | binds weakly | binds |  |  |  | PspC^LeuZm (leucine zipper mutant of full-length PspC), T18 fusion (from UniProt P0AFN2)
2 |  | binds |  |  |  | PspC_(40–119) leucine zipper mutant fused to T18 at its C-terminus (from UniProt P0AFN2) (domain or fragment)
3 |  | binds | binds | binds | binds | PspB^LeuZm (leucine zipper mutant of PspB) fused to T18 at its C-terminus (from UniProt P0AFM9)
4 | no binding | binds weakly |  |  | binds weakly | ArcB^LeuZm (leucine zipper mutant of ArcB), T18 fusion (from UniProt P0AEC3)

Reference: article PMC3068692
